Reference: US8933235B2, “Pyridinedione carboxamide inhibitors of endothelial lipase” (Bristol-Myers Squibb Company, priority 2011, dated 2015)
Some results were stated once for a whole list of compounds, not compound by compound. At least one structure is not confirmed: it was looked up by name or label, or the drawing left a doubt.

molecular target: T1, endothelial lipase (EL) (Homo sapiens, UniProt Q9Y5X9); assay: Endothelial lipase (EL) enzymatic assay with fluorescent substrate A10070 in DMPG vesicles; assay type: biochemical; settings: result in words
T1 construct: Conditioned media obtained from HT-1080 cells, which were transformed by RAGE technology (Athersys) to overexpress endogenous EL; endogenous in cells; conditioned medium used as the enzyme source
T1 sequence (Q9Y5X9 21-500): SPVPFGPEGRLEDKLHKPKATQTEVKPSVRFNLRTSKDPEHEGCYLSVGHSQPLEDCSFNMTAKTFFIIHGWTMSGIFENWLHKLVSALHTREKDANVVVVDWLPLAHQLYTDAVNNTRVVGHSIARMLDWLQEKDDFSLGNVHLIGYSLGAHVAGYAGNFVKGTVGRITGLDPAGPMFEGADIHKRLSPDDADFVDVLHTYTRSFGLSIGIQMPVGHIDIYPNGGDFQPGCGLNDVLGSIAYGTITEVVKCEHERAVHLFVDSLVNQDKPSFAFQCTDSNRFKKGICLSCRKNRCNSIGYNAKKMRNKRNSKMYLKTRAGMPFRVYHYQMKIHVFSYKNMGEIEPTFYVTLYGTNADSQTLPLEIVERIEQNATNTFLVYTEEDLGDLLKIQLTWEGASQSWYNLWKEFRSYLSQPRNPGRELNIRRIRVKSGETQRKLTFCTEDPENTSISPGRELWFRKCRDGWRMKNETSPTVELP
Description: Endothelial lipase activity was measured using a fluorescent substrate, A10070, (Invitrogen, CA) doped into an artificial vesicle containing DMPG (Avanti Polar Lipids) as the excipient. Vesicles were prepared by combining 285 uL of 1 mM DMPG in a 1:1 mixture of MeOH and CHCl3 with 15 uL of 1 mM A10070 in a 1:1 mixture of MeOH and CHCl3. The mixture was dried under nitrogen and resuspended in 150 uL of 50 mM HEPES pH 8.0 buffer containing 100 mM NaCl and 0.2 mM EDTA. The sample was allowed to sit at rt for 15 min and then was sonicated 3×4 mins on ice with a Branson Sonicator using duty cycle 1. This preparation provides vesicles with a mole fraction of 0.05 for the FRET substrate.
The enzymatic assay was measured using white, opaque 96-well half area plates. Each well contained 60 uL of assay buffer (50 mM HEPES pH 8.0, 50 mM NaCl and 1 mM CaCl2) and 2 ul of a DMSO solution containing compound of interest. Conditioned media obtained from HT-1080 cells, which were transformed by RAGE technology (Athersys) to overexpress endogenous EL, was added and the reaction was allowed to incubate for 20 min at 37° C. with gentle agitation. The reaction was started by the addition of 20 uL of a 1:4 dilution of vesicles. The final total reaction volume was 100 uL. The reaction rates were measured on a Gemini plate reader with an excitation wavelength of 488 nm and a emission of 530 nm. Readings were taken every 20 seconds for 10 min with agitation between each reading. The slope of the linear portion of the readout was used to calculate the rate of the reaction.

Structure (SMILES)	EL inhibitory activity
Cn1c(-c2ccncc2)cc(C(=O)NCCCc2ccc(Cl)c(Cl)c2)c(O)c1=O [Example 4, N-(3-(3,4-dichlorophenyl)propyl)-3-hydroxy-1-methyl-2-oxo-6-(pyridin-4-yl)-1,2-dihydropyridine-4-carboxamide]	found having EL inhibitory activity
C=Cc1cc(C(=O)NCCCc2ccc(Cl)c(Cl)c2)c(O)c(=O)n1C [Example 104, N-(3-(3,4-dichlorophenyl)propyl)-3-hydroxy-1-methyl-2-oxo-6-vinyl-1,2-dihydropyridine-4-carboxamide]	found having EL inhibitory activity
CC(NC(=O)c1cc(-c2cc(F)cc(C(F)(F)F)c2)n(C)c(=O)c1O)c1cc(F)cc(F)c1 (stereo not shown) [Example 61, N-(1-(3,5-difluorophenyl)ethyl)-6-(3-fluoro-5-(trifluoromethyl)phenyl)-3-hydroxy-1-methyl-2-oxo-1,2-dihydropyridine-4-carboxamide]	found having EL inhibitory activity
Cn1ccc(C(=O)NCCc2cccc(C(F)(F)F)c2)c(O)c1=O [Example 131, 3-hydroxy-1-methyl-2-oxo-N-(3-(trifluoromethyl)phenethyl)-1,2-dihydropyridine-4-carboxamide]	found having EL inhibitory activity
Cn1c(-c2cc(F)cc(OC(F)(F)C(F)F)c2)cc(C(=O)NCCCc2ccc(Cl)c(Cl)c2)c(O)c1=O [Example 47, N-(3-(3,4-dichlorophenyl)propyl)-6-(3-fluoro-5-(1,1,2,2-tetrafluoroethoxy)phenyl)-3-hydroxy-1-methyl-2-oxo-1,2-dihydropyridine-4-carboxamide]	found having EL inhibitory activity
Cc1cc(-c2cc(C(=O)NCCCc3ccc(Cl)c(Cl)c3)c(O)c(=O)n2C)ccc1F [Example 17, N-(3-(3,4-dichlorophenyl)propyl)-6-(4-fluoro-3-methylphenyl)-3-hydroxy-1-methyl-2-oxo-1,2-dihydropyridine-4-carboxamide]	found having EL inhibitory activity
Cn1c(C(F)(F)F)cc(C(=O)NCCCOc2ccccc2C(F)(F)F)c(O)c1=O [Example 89, 3-hydroxy-1-methyl-2-oxo-6-(trifluoromethyl)-N-(3-(2-(trifluoromethyl)phenoxy)propyl)-1,2-dihydropyridine-4-carboxamide]	found having EL inhibitory activity
Cn1c(-c2cccc(C(=O)O)c2)cc(C(=O)NCCCc2ccc(Cl)c(Cl)c2)c(O)c1=O [Example 45, 3-(4-(3-(3,4-dichlorophenyl)propylcarbamoyl)-5-hydroxy-1-methyl-6-oxo-1,6-dihydropyridin-2-yl)benzoic acid]	found having EL inhibitory activity
O=C(O)c1ccc(Cn2ccc(C(=O)NCCCc3ccc(Cl)c(Cl)c3)c(O)c2=O)cc1 [Example 177, 4-((4-(3-(3,4-dichlorophenyl)propylcarbamoyl)-3-hydroxy-2-oxopyridin-1(2H)-yl)methyl)benzoic acid]	found having EL inhibitory activity
Cn1c(-c2ccc(OC(F)(F)F)cc2)cc(C(=O)NCCCc2ccc(Cl)c(Cl)c2)c(O)c1=O [Example 22, N-(3-(3,4-dichlorophenyl)propyl)-3-hydroxy-1-methyl-2-oxo-6-(4-(trifluoromethoxy)phenyl)-1,2-dihydropyridine-4-carboxamide]	found having EL inhibitory activity
COc1ccc(CNc2c(C(=O)NCCCc3ccc(Cl)c(Cl)c3)cc(C(F)(F)F)n(C)c2=O)cc1 [Example 191, N-(3-(3,4-dichlorophenyl)propyl)-3-(4-methoxybenzylamino)-1-methyl-2-oxo-6-(trifluoromethyl)-1,2-dihydropyridine-4-carboxamide]	found having EL inhibitory activity
Cn1c(-c2ccccc2)cc(C(=O)NCCCc2ccc(Cl)c(Cl)c2)c(O)c1=O [Example 46, N-(3-(3,4-dichlorophenyl)propyl)-3-hydroxy-1-methyl-2-oxo-6-phenyl-1,2-dihydropyridine-4-carboxamide]	found having EL inhibitory activity
Cn1c(-c2ccc(C(N)=O)cc2)cc(C(=O)NCCCc2ccc(Cl)c(Cl)c2)c(O)c1=O [Example 30, 6-(4-carbamoylphenyl)-N-(3-(3,4-dichlorophenyl)propyl)-3-hydroxy-1-methyl-2-oxo-1,2-dihydropyridine-4-carboxamide]	found having EL inhibitory activity
Cn1c(C(F)(F)F)cc(C(=O)NCCCOc2ccccc2F)c(O)c1=O [Example 101, N-(3-(2-fluorophenoxy)propyl)-3-hydroxy-1-methyl-2-oxo-6-(trifluoromethyl)-1,2-dihydropyridine-4-carboxamide]	found having EL inhibitory activity
Cn1c(-c2cc(F)cc(C(F)(F)F)c2)cc(C(=O)NCCCOc2ccc(C(F)(F)F)cc2)c(O)c1=O [Example 70, 6-(3-fluoro-5-(trifluoromethyl)phenyl)-3-hydroxy-1-methyl-2-oxo-N-(3-(4-(trifluoromethyl)phenoxy)propyl)-1,2-dihydropyridine-4-carboxamide]	found having EL inhibitory activity
Cc1nc(-c2cc(C(=O)NCCCc3ccc(Cl)c(Cl)c3)c(O)c(=O)n2C)no1 [Example 185, N-(3-(3,4-dichlorophenyl)propyl)-3-hydroxy-1-methyl-6-(5-methyl-1,2,4-oxadiazol-3-yl)-2-oxo-1,2-dihydropyridine-4-carboxamide]	found having EL inhibitory activity
Cc1ccc(OCCCNC(=O)c2cc(-c3cc(F)cc(C(F)(F)F)c3)n(C)c(=O)c2O)cc1 [Example 63, 6-(3-fluoro-5-(trifluoromethyl)phenyl)-3-hydroxy-1-methyl-2-oxo-N-(3-(p-tolyloxy)propyl)-1,2-dihydropyridine-4-carboxamide]	found having EL inhibitory activity
O=C(NCCCOc1ccccc1C(F)(F)F)c1ccn(CC2CC2)c(=O)c1O [Example 168, 1-(cyclopropylmethyl)-3-hydroxy-2-oxo-N-(3-(2-(trifluoromethyl)phenoxy)propyl)-1,2-dihydropyridine-4-carboxamide]	found having EL inhibitory activity
COc1ccc(CCNC(=O)c2ccn(C)c(=O)c2O)cc1 [Example 128, 3-hydroxy-N-(4-methoxyphenethyl)-1-methyl-2-oxo-1,2-dihydropyridine-4-carboxamide]	found having EL inhibitory activity
COc1ccc(CCNC(=O)c2cc(-c3cc(F)cc(C(F)(F)F)c3)n(C)c(=O)c2O)cc1 [Example 51, 6-(3-fluoro-5-(trifluoromethyl)phenyl)-3-hydroxy-N-(4-methoxyphenethyl)-1-methyl-2-oxo-1,2-dihydropyridine-4-carboxamide]	found having EL inhibitory activity
COc1ccccc1OCCCNC(=O)c1ccn(C)c(=O)c1O [Example 139, 3-hydroxy-N-(3-(2-methoxyphenoxy)propyl)-1-methyl-2-oxo-1,2-dihydropyridine-4-carboxamide]	found having EL inhibitory activity
Cn1c(-c2cc(F)cc(C(F)(F)F)c2)cc(C(=O)NCCCOc2ccccc2F)c(O)c1=O [Example 75, 6-(3-fluoro-5-(trifluoromethyl)phenyl)-N-(3-(2-fluorophenoxy)propyl)-3-hydroxy-1-methyl-2-oxo-1,2-dihydropyridine-4-carboxamide]	found having EL inhibitory activity
Cn1ccc(C(=O)NCCCOc2ccc(C(F)(F)F)cc2)c(O)c1=O [Example 146, 3-hydroxy-1-methyl-2-oxo-N-(3-(4-(trifluoromethyl)phenoxy)propyl)-1,2-dihydropyridine-4-carboxamide]	found having EL inhibitory activity
CC(C)Cn1ccc(C(=O)N[C@H](C)CCOc2ccccc2C(F)(F)F)c(O)c1=O [Example 164, (R)-3-hydroxy-1-isobutyl-2-oxo-N-(4-(2-(trifluoromethyl)phenoxy)butan-2-yl)-1,2-dihydropyridine-4-carboxamide]	found having EL inhibitory activity
COC(=O)c1ccc(Cn2ccc(C(=O)NCCCc3ccc(Cl)c(Cl)c3)c(O)c2=O)cc1 [Example 176, methyl 4-((4-(3-(3,4-dichlorophenyl)propylcarbamoyl)-3-hydroxy-2-oxopyridin-1(2H)-yl)methyl)benzoate]	found having EL inhibitory activity
